The target in series [1] is T1, MipZ (Caulobacter crescentus) (UniProt Q9A6C9).
T1 sequence (looked up, limits assumed): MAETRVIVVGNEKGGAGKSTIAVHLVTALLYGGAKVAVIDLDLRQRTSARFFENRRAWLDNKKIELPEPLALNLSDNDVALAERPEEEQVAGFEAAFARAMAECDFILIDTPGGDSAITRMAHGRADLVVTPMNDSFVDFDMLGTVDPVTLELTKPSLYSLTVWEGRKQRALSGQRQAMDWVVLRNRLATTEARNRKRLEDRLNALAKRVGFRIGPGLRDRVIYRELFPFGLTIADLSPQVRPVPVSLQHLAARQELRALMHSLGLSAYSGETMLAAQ
The experiment in a line: competition with a labelled probe. The following applies: SPR competition, 2 mM ATP, 6 uM competitor; EMSA: 1.25 mM nucleotide, 270 nM-5.6 uM protein, room temperature; recombinant protein.

The target in series [2] is T2, MipZ-G14V (Caulobacter crescentus) (UniProt Q9A6C9).
T2 sequence (looked up, limits assumed): T1 sequence (looked up, limits assumed) with G14V
The experiment in a line: SPR. The following applies: ADP; SPR: buffer P2 or buffer BC (Mg2+-containing) with 2 mM nucleotide; recombinant protein; label: biotin (immobilized).

Series [3] addresses T3, MipZ-D42A (Caulobacter crescentus) (UniProt Q9A6C9).
T3 sequence (looked up, limits assumed): T1 sequence (looked up, limits assumed) with D42A
The series can be described thus: SPR. To be noted: ADP; SPR: buffer P2 or buffer BC (Mg2+-containing) with 2 mM nucleotide; recombinant protein; label: biotin (immobilized).

Series [4] has as its target T4, MipZ-K18Q (Caulobacter crescentus) (UniProt Q9A6C9).
T4 sequence (looked up, limits assumed): T1 sequence (looked up, limits assumed) with K18Q
The series can be described thus: SPR. To be noted: ADP; SPR: buffer P2 or buffer BC (Mg2+-containing) with 2 mM nucleotide; recombinant protein; label: biotin (immobilized).

The target of series [5] is T1, MipZ (Caulobacter crescentus). The series can be described thus: SPR. To be noted: SPR: buffer P2 or buffer BC (Mg2+-containing) with 2 mM nucleotide, recombinant protein, label: biotin (immobilized).
Series [6] has as its target T5, MipZ-K13A (Caulobacter crescentus) (UniProt Q9A6C9).
T5 sequence (looked up, limits assumed): T1 sequence (looked up, limits assumed) with K13A
The series can be described thus: SPR. To be noted: ADP; SPR: buffer P2 or buffer BC (Mg2+-containing) with 2 mM nucleotide; recombinant protein; label: biotin (immobilized).

The text below walks through data of publication PMC3355305, “Localized Dimerization and Nucleoid Binding Drive Gradient Formation by the Bacterial Cell Division Inhibitor MipZ” (Molecular Cell, 2012).

Where a chain is given by its changes, count along the chain named. The exact form of at least one protein or probe is not confirmed. For some assays here: Negatives hold for the conditions tested. At least one verdict rests on a figure or table, not on a statement of the authors. Where a protein sequence is shown, tags need not be part of it.

Regarding “GTCGACAGAGTTCGCTAACATCGAGC (double strand) [ran2 unlabelled competitor]”, the binding result in series [1] is “binds”.
In the case of “GTCGACAGAGTTCGCTAACATCGAGC (double strand) [ran2]”, the binding result in series [2], in series [3], in series [4], in series [5] (2 mM ATP without Mg2+ (10 mM EDTA)), in series [5] (ADP) and in series [5] (no nucleotide) was “no binding” in each case. Moreover, the binding result in series [6] is given as “no binding”.
